Laboratory results taken from publication PMC8150775, “Repositioning Azelnidipine as a Dual Inhibitor Targeting CD47/SIRPα and TIGIT/PVR Pathways for Cancer Immuno-Therapy” (Biomolecules, 2021).
Results are given in words; binding and its absence hold for the method and conditions named. Some entries that bind do so weakly or less than the wild type. Tags and fused reporters may be left off the sequences shown.

Molecular target: T1, murine CD47 on CHOK1-mCD47 cells (mouse) (UniProt Q61735)
T1 sequence: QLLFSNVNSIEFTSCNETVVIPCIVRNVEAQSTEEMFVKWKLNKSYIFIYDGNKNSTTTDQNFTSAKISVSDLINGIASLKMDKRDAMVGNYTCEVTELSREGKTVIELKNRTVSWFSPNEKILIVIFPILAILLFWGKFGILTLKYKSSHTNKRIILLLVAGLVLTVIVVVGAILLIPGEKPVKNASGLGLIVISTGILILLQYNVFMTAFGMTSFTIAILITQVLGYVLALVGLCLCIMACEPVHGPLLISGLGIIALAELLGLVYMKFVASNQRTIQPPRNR
Assay: flow cytometry on cells; blocking assay: Fc-tagged SIRPα or PVR protein, pre-incubated with or without small molecule inhibitor for 30 min at 4 °C, then incubated 30 min with CHOK1-CD47 or CHOK1-TIGIT cells; bound Fc protein detected with PE-conjugated anti-human IgG antibody; positive control without inhibitor; only the binder purified

B1: mouse SIRPα protein, Fc-tagged (Fc fusion, UniProt P97797 32-373)
chain: KELKVTQPEKSVSVAAGDSTVLNCTLTSLLPVGPIRWYRGVGPSRLLIYSFAGEYVPRIRNVSDTTKRNNMDFSIRISNVTPADAGIYYCVKFQKGSSEPDTEIQSGGGTEVYVLAKPSPPEVSGPADRGIPDQKVNFTCKSHGFSPRNITLKWFKDGQELHPLETTVNPSGKNVSYNISSTVRVVLNSMDVNSKVICEVAHITLDRSPLRGIANLSNFIRVSPTVKVTQQSPTSMNQVNLTCRAERFYPEDLQLIWLENGNVSRNDTPKNLTKNTDGTYNYTSLFLVNSSAHREDVVFTCQVKHDQQPAITRNHTVLGFAHSSDQGSMQTFPDNNATHNWN
Question: How did the binding turn out when B1 was run?
Answer: binds
